Assay results reported in patent publication US20160280798A1, “ALK ANTIBODIES, CONJUGATES, AND CHIMERIC ANTIGEN RECEPTORS, AND THEIR USE” (The United States of America, as Represented by the …, priority 2013, published 2016).

System: transduced PBMC / T cell surface
Assay: CAR expression on transduced T cells by flow cytometry
Type: cell-based, human
Settings: anti-Fc or protein L staining, FIG. 3

B1: ALK48: CAR construct, long format: SP-murine ALK48 scFv-CH2CH3 spacer; signaling domains not stated for the in vitro tests (antibody, V domains shown)
VH: QVQLQQSGAELVKPGASVKISCKASGYAFSSYWMNWVKQRPGKGLEWIGQIYPGDGDTTYNGKFKGKATLTADKSSSTVYMQLNSLTSEDSAVYFCVRYYYGSSGYFDYWGQGTTLTVSS
VL: DVQMIQTPDSLAVSLGQRATISCRASESVDNYGISFMHWYQQKPGQSPKLLIYRASNLESGIPARFSGSGSRTDFTLTINPVETDDVATYYCQQNNKDPPTFGGGTKLEIK
CAR cell surface expression level: weaker and less distinct expression
